Measured values published in article PMC9513230, “Inhibition of Plasmodium falciparum Hsp70-Hop partnership by 2-phenylthynesulfonamide” (Frontiers in Molecular Biosciences, 2022).
No constants are given. Whether binding was seen depends on the method and setting.

The chains behind the UniProt entries cited, without tags or fusion partners. Residues count along the entry.
UniProt P02769, residues 25-607: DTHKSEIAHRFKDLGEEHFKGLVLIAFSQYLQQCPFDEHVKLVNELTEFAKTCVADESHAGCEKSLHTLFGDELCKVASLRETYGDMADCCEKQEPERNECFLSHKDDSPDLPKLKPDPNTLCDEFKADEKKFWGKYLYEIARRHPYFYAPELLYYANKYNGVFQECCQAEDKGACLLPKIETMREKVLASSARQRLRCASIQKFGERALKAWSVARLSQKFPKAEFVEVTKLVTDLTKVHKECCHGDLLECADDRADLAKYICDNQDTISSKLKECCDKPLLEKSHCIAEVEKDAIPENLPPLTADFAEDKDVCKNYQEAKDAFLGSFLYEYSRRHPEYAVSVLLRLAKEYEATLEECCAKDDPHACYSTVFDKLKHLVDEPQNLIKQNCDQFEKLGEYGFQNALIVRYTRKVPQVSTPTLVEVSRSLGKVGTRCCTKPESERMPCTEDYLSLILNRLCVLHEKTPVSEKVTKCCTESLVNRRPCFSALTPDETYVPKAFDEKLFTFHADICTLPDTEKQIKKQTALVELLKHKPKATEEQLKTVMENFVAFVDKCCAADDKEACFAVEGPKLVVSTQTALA
UniProt Q8IB24: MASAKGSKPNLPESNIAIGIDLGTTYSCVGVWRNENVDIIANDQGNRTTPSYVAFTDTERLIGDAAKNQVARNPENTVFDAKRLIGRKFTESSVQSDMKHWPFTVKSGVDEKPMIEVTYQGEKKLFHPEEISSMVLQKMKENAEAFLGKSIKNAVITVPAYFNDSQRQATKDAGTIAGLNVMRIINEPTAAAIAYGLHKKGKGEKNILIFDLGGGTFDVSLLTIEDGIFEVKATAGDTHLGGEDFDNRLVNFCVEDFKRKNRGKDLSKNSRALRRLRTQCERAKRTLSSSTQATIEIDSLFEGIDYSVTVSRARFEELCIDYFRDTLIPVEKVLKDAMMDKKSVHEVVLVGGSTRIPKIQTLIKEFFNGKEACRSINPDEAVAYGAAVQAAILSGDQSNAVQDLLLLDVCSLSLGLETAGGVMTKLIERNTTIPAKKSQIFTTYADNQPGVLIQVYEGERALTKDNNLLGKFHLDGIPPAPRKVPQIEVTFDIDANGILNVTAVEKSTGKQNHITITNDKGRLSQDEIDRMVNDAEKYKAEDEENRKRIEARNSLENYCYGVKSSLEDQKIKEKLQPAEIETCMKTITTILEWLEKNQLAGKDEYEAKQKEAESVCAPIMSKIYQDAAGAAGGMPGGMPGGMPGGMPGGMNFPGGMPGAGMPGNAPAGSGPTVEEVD

Molecular target: BSA (UniProt P02769)
Experiment: ELISA; both purified

Plasmodium falciparum Hsp70-1 (from UniProt Q8IB24 1-677)
binding: no binding
